This experiment has as its target T1, Regulator of G protein signaling 20 (RGS20) (human (endogenous in Penl1 and 149RM)) (UniProt O76081).
T1 sequence: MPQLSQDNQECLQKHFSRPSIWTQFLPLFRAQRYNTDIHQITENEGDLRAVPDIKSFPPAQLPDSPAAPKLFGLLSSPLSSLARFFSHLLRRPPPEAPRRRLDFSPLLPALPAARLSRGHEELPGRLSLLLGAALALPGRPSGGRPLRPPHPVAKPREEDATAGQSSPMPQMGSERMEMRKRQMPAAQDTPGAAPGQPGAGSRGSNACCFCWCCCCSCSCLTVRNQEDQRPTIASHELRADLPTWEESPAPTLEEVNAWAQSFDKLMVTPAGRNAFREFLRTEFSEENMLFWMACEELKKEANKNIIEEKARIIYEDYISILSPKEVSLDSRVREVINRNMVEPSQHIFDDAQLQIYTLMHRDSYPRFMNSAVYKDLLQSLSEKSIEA
Kind of experiment: co-IP; RGS20 immunoprecipitated with a rabbit anti-RGS20 antibody, captured by Protein G Dynabeads; immunoprecipitates analysed by western blotting; Penl1 and 149RM cells; IgG as control.

By UniProt entry, the sequences of proteins in these tests, tags left out.
UniProt P27986: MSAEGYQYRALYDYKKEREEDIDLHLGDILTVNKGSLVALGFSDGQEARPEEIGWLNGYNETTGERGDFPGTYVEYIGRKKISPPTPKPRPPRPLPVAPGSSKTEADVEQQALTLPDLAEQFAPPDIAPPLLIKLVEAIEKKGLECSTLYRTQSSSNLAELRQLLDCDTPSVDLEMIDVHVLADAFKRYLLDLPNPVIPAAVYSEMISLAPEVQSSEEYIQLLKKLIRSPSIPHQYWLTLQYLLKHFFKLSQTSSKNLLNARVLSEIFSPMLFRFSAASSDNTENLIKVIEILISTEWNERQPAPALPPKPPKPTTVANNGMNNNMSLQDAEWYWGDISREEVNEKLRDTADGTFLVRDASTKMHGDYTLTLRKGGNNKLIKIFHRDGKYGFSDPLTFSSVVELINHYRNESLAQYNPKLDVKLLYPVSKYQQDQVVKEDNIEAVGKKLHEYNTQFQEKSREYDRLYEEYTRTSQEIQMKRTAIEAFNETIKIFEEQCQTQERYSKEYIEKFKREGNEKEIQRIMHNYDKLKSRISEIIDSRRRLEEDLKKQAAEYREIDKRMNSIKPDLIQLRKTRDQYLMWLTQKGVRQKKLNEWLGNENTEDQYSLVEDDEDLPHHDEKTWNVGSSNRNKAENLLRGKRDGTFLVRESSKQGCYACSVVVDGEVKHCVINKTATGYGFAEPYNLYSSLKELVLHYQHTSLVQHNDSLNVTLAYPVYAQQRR

Results are given in words; binding and its absence hold for the method and conditions named. Binding seen in cells or lysates may run through a third protein. Some entries that bind do so weakly or less than the wild type.

“PI3K p85α subunit (from UniProt P27986 1-724)”: the binding result is recorded as “binds”.

Source of the values: publication PMC9042636.
